According to PubChem BioAssay AID540276 (National Center for Advancing Translational Sciences (NCATS), 2011):
The whole screen tested about 300,000 compounds, of which about 5,400 (1.8%) were called active. The inconclusive results got no clear call from the source; some entries with a clear call stand among them for comparison. Calls come from the whole dose curve; tested in HEK293 cells. Where the call is inconclusive, the potency comes from a doubtful curve fit.

test: qHTS for inhibitors of binding or entry into cells for Marburg Virus; conditions: Marburg virus pseudotyped entry inhibition, cell reporter; activity change, negative = inhibition: at 37.8 µM (top of the series) unless noted
% is set by controls: 0 for no effect and ±100 for the full control effect; potency is the fitted concentration of half-maximal effect.

Q: Which Potency does the source give for `COc1cccc(NC(=O)C(Sc2nnc(Nc3ccccc3C)s2)c2ccccc2)c1` (centres undefined) here?
A: inconclusive: 12.6 µM [inhibitor, single point]

Q: With `COc1cc2nc(SCC(=O)NC3CC3)n(CCC3=CCCCC3)c(=O)c2cc1OC` as the compound, how does the “activity change, negative = inhibition” value read?
A: inactive: -0.969%

Q: With `COC(=O)C1=C(O)/C(=C\c2ccc(CNC(=O)C(=O)Nc3ccc(C)cc3)o2)N=C1C` as the compound, how does the Potency read?
A: inconclusive: 17.8 µM [inhibitor, single point]

Q: Which Potency does the source give for `Cc1ccc(-c2cc(C(=O)N3CCOCC3)no2)cc1` here?
A: active: 2 µM

Q: For `FC(F)(F)c1cccc(-c2noc(CN3CCOCC3)n2)c1`, which “activity change, negative = inhibition” value is on record?
A: inactive: -1.92%

Q: For `CCOC(=O)c1ccc2[nH]c3c(c2c1)CCCCC3=O`, which “activity change, negative = inhibition” value is on record?
A: inactive: -6.01%

Q: Which Potency does the source give for `Cc1cccc(Oc2nc(CN3CCOCC3)nc3sc4c(c23)CCCC4)c1` here?
A: inconclusive: 10 µM [inhibitor, partial curve, poor fit]

Q: For `CSc1cccc(NC(=O)CCc2ccccc2)c1`, which “activity change, negative = inhibition” value is on record?
A: inactive: -14.8% [at 46.1 µM]

Q: Which Potency does the source give for `Cc1oc2c(cc(NS(=O)(=O)c3ccc(C(C)C)cc3)c3ccccc32)c1C(=O)O` here?
A: inconclusive: 3.16 µM [activator, single point]

Q: Which Potency does the source give for `COc1cc(CN2CCN(c3ccccc3F)CC2)c([N+](=O)[O-])cc1OC` here?
A: inconclusive: 20.6 µM [inhibitor, single point]

Q: With `COc1ccc(OC)c(NC(=O)CSc2ncnc3c2cnn3-c2ccccc2Cl)c1` as the compound, how does the Potency read?
A: active: 1.83 µM

Q: For `CCc1nc(SCC(=O)Nc2cc(C)on2)n[nH]1`, which “activity change, negative = inhibition” value is on record?
A: inactive: 3.17%

Q: Which “activity change, negative = inhibition” value does the source give for `CC(=O)Nc1ccc(S(=O)(=O)N2CCC(c3nnc(-c4ccc(C)cc4)o3)CC2)cc1` here?
A: inactive: 0.0129% [at 46.1 µM]

Q: For `Cc1cccc(OC(C)C(=O)OCC(=O)N2CCN(c3ccccc3)CC2)c1` (centres undefined), which “activity change, negative = inhibition” value is on record?
A: inactive: 23.9%

Q: Which Potency does the source give for `CCN(CC)CCN(C(=O)C1=COCCO1)c1nc2ccc(C)cc2s1` here?
A: inconclusive: 35.5 µM [inhibitor, single point]

Q: With `CCOc1ccccc1NC(=O)CN(c1ccc(C)cc1)S(=O)(=O)c1c(C)noc1C` as the compound, how does the Potency read?
A: inconclusive: 17.8 µM [inhibitor, single point]

Q: For `CCOC(=O)N1CCN(C(=O)CSCC(=O)Nc2nc(-c3ccc4c(c3)OCO4)cs2)CC1`, which Potency is on record?
A: inconclusive: 23.1 µM [inhibitor, partial curve, poor fit]

Q: With `CC(c1ccccc1)N1CCN(C(=O)CCl)CC1` (centres undefined) as the compound, how does the Potency read?
A: inconclusive: 23.1 µM [inhibitor, single point]

Q: For `COc1cc(C(=O)NC2CCCc3ccccc32)cc(OC)c1C` (centres undefined), which Potency is on record?
A: inconclusive: 7.08 µM [inhibitor, partial curve, poor fit]

Q: For `Cc1nc2cc(C(=O)OCC(=O)Nc3ccc(C#N)cc3)ccc2n1-c1ccccc1`, which Potency is on record?
A: inconclusive: 0.112 µM [inhibitor, full curve, poor fit]

Q: With `CC(C)CCn1c(SCc2ccc(Cl)cc2)nc2c1c(=O)[nH]c(=O)n2C` as the compound, how does the “activity change, negative = inhibition” value read?
A: inactive: -29.4%

Q: With `Cc1ccc(CSc2nnc(-c3cccc(S(=O)(=O)N4CCOCC4)c3)n2CC(C)C)cc1` as the compound, how does the Potency read?
A: inconclusive: 11.2 µM [inhibitor, partial curve, poor fit]

Q: Which Potency does the source give for `CC(C)CCNC(=O)/C=C/c1ccc(Br)cc1` here?
A: inconclusive: 1.12 µM [activator, single point]

Q: With `Cc1ccc2nc(-c3ccncc3)cc(C(=O)Nc3ccc(OC(F)F)cc3)c2c1` as the compound, how does the Potency read?
A: inconclusive: 5.01 µM [inhibitor, partial curve]

Q: For `COc1ccc(C(=O)NCc2ccc(C(=O)O)o2)cc1`, which “activity change, negative = inhibition” value is on record?
A: inactive: 12.1% [at 46.1 µM]

Q: With `O=C1C2C3C=CC(C3)C2C(=O)N1/N=C/c1cn(Cc2ccccc2)c2ccccc12` (centres undefined) as the compound, how does the Potency read?
A: inconclusive: 10 µM [inhibitor, partial curve, poor fit]

Q: Which Potency does the source give for `Cc1ccc(C)c(N2CCN(C(=O)CCCN3C(=S)NC(C)(C)CC3C)CC2)c1` (centres undefined) here?
A: inconclusive: 0.112 µM [inhibitor, full curve, poor fit]

Q: Which Potency does the source give for `Cc1ccc(Oc2ccc(S(=O)(=O)NCC(C)(C)N3CCOCC3)cc2)cc1` here?
A: inconclusive: 35.5 µM [inhibitor, single point]

Q: For `O=C(CSc1cccc[n+]1[O-])Nc1ccc(Br)cc1Br`, which Potency is on record?
A: inconclusive: 10 µM [activator, partial curve]

Q: Which Potency does the source give for `COC(=O)c1ccc(NC(=O)Cn2nc(SC)n(N)c2=S)cc1` here?
A: inconclusive: 35.5 µM [inhibitor, single point]

Q: Which “activity change, negative = inhibition” value does the source give for `CCNc1ccc(-c2nc(-c3ccccn3)no2)cc1[N+](=O)[O-]` here?
A: inactive: 5.16% [at 46.1 µM]

Q: With `CC(C)(C)c1ccc(Cn2c(=O)cnc3ccccc32)cc1` as the compound, how does the Potency read?
A: inconclusive: 10 µM [inhibitor, partial curve, poor fit]

Q: Which Potency does the source give for `CCN1CCN(c2ccc(S(=O)(=O)N3CCCCC3)cc2NC(=O)Cc2ccccc2F)CC1` here?
A: inconclusive: 0.501 µM [inhibitor, full curve, poor fit]

Q: For `O=S(=O)(NC1CCc2ccccc21)c1ccc(S(=O)(=O)N2CCCC2)cc1` (centres undefined), which Potency is on record?
A: inconclusive: 25.9 µM [inhibitor, single point]

Q: Which “activity change, negative = inhibition” value does the source give for `O=C1Nc2ccccc2/C1=C/c1ccc([N+](=O)[O-])cc1` here?
A: inactive: -0.398% [at 46.1 µM]

Q: Which Potency does the source give for `COc1ccc(NC(=O)c2c(NC(=O)CNCc3ccco3)sc3c2CCC3)c(OC)c1` here?
A: inactive

Q: With `CC(=O)N1c2ccccc2Nc2ccccc21` as the compound, how does the Potency read?
A: inconclusive: 11.6 µM [activator, single point]

Q: For `CC1(c2ccc(OC(F)F)cc2)NC(=O)N(CC(=O)Nc2ccccc2)C1=O` (centres undefined), which “activity change, negative = inhibition” value is on record?
A: inactive: 19.8% [at 46.1 µM]

Q: For `O=C(CN1CCCC1)Nc1ccc(OC(F)(F)F)cc1`, which “activity change, negative = inhibition” value is on record?
A: inactive: 9.41%

Q: Which “activity change, negative = inhibition” value does the source give for `Cc1nn(CC(=O)N2CCCCCC2)c(=O)c2cc3occc3n12` here?
A: inactive: -5.42% [at 46.1 µM]

Q: For `CCCn1c(=O)c2[nH]cnc2n(-c2ccc(Cl)cc2)c1=O`, which Potency is on record?
A: inconclusive: 12.6 µM [inhibitor, single point]

Q: Which Potency does the source give for `O=C1C(Br)=C(c2ccccc2)C(c2ccccc2)=C1c1ccccc1` here?
A: inconclusive: 1.26 µM [inhibitor, partial curve, poor fit]

Q: For `O=C(O)Cc1ccc(NS(=O)(=O)c2c(Cl)cccc2Cl)cc1`, which Potency is on record?
A: inconclusive: 3.16 µM [inhibitor, single point]

Q: Which “activity change, negative = inhibition” value does the source give for `CCOc1ccc(NC(=O)NNC(=O)c2cccnc2)cc1` here?
A: inactive: -3.3% [at 46.1 µM]

Q: With `CCOC(=O)C1=c2s/c(=C\c3ccncc3)c(=O)n2C(N)=C(C(=O)OC)C1c1ccncc1` (centres undefined) as the compound, how does the Potency read?
A: inconclusive: 8.2 µM [inhibitor, partial curve]

Q: With `COc1ccc(CNCC(O)(c2ccc(F)cc2)c2ccc(F)cc2)cc1` as the compound, how does the Potency read?
A: inconclusive: 4.47 µM [inhibitor, partial curve, poor fit]

Q: Which Potency does the source give for `O=C(CCSc1nc2ccccc2s1)N/N=C/c1c(O)ccc2ccccc12` here?
A: inconclusive: 16.4 µM [inhibitor, single point]

Q: Which Potency does the source give for `CCC(=O)N1CCc2cc(S(=O)(=O)NC(CC(C)C)C(=O)NCCc3cccc(C)c3)ccc21` (centres undefined) here?
A: inconclusive: 35.5 µM [inhibitor, single point]

Q: For `CC(=O)Nc1ccc(Nc2nc(Cl)nc(Nc3ccc(NC(C)=O)cc3)n2)cc1`, which Potency is on record?
A: inconclusive: 35.5 µM [inhibitor, single point]

Q: Which “activity change, negative = inhibition” value does the source give for `COc1ccc(CNC(=O)c2ccc(NC(=O)C3CCCO3)cc2)cc1` (centres undefined) here?
A: inactive: 8.38%

Q: For `COc1cccc(C(=O)OCCN2CCCCC2)c1`, which “activity change, negative = inhibition” value is on record?
A: inactive: 0%

Q: Which Potency does the source give for `Cc1ccc(C2=NOC(=O)/C2=C\c2ccc(C)o2)cc1` here?
A: inconclusive: 7.08 µM [activator, partial curve, poor fit]

Q: For `COc1cc2sc(C)nc2c2sccc12`, which “activity change, negative = inhibition” value is on record?
A: inactive: 2.55%

Q: For `COc1cccc(C2(O)C(=O)Nc3ccccc32)c1` (centres undefined), which Potency is on record?
A: inconclusive: 3.98 µM [inhibitor, single point]

Q: With `COc1cc(CN2CCN(Cc3ccc(C)cc3)C(CCO)C2)cc(OC)c1O` (centres undefined) as the compound, how does the Potency read?
A: inconclusive: 7.08 µM [activator, partial curve, poor fit]

Q: Which Potency does the source give for `O=C(C1CCCCN1S(=O)(=O)c1ccccc1)N1CCN(C(c2ccccc2)c2ccccc2)CC1` (centres undefined) here?
A: inconclusive: 16.4 µM [inhibitor, partial curve]

Q: With `O=C(CSc1nc2ccc(Cl)cc2[nH]1)NC1CCCc2ccccc21` (centres undefined) as the compound, how does the Potency read?
A: inconclusive: 0.891 µM [inhibitor, full curve, poor fit]

Q: Which Potency does the source give for `CC1CN(C(=O)CN2C(=O)c3ccccc3C2=O)CC(C)O1` (centres undefined) here?
A: inconclusive: 6.31 µM [activator, partial curve, poor fit]

Q: For `O=C1c2oc3ccc(F)cc3c(=O)c2C(c2cccc(O)c2)N1CCCN1CCOCC1` (centres undefined), which Potency is on record?
A: inconclusive: 16.4 µM [activator, partial curve, poor fit]

Q: For `COc1ccc(-c2[nH]ncc2CN2CCC(C(=O)c3ccc(F)cc3)CC2)cc1`, which Potency is on record?
A: inconclusive: 35.5 µM [inhibitor, single point]

Q: With `O=C(CN1CCN(c2ccc(C(F)(F)F)cn2)CC1)NCc1ccc2c(c1)OCO2` as the compound, how does the “activity change, negative = inhibition” value read?
A: inactive: 1.95%

Q: For `O=C(CN1C(=O)C2C3C=CC(C3)C2C1=O)OCC(=O)c1ccc(Cl)cc1` (centres undefined), which “activity change, negative = inhibition” value is on record?
A: inactive: -7.17% [at 46.1 µM]

Q: For `c1coc(CNc2nc(-c3cccs3)cs2)c1`, which Potency is on record?
A: inconclusive: 5.62 µM [activator, single point]

Q: Which “activity change, negative = inhibition” value does the source give for `CC(=NNC(=O)c1ccncc1)c1cccc(Br)c1` here?
A: inactive: 1.32% [at 46.1 µM]

Q: Which Potency does the source give for `CCn1c(C)cc(/C=C2/SC(=O)N(C(C)C(=O)OC)C2=O)c1C` (centres undefined) here?
A: inconclusive: 3.16 µM [activator, single point]

Q: Which Potency does the source give for `Cc1cc2cc(CCNC(=O)c3ccc(C)c([N+](=O)[O-])c3)c(=O)[nH]c2cc1C` here?
A: inconclusive: 35.5 µM [inhibitor, single point]

Q: Which “activity change, negative = inhibition” value does the source give for `Cc1cc(N2CCN(Cc3ccc4c(c3)OCO4)CC2)n2ncnc2n1` here?
A: inactive: 6.99%

Q: Which Potency does the source give for `O=S(=O)(c1ccc(OCC(O)CN2CCCCC2)cc1)N1CCOCC1` (centres undefined) here?
A: inconclusive: 5.8 µM [inhibitor, partial curve, poor fit]

Q: With `CC(C)(C)c1ccc(-c2nc(C#N)c(N3CCC(C(N)=O)CC3)o2)cc1` as the compound, how does the Potency read?
A: inconclusive: 35.5 µM [inhibitor, single point]
